# Laboratory results as given in article PMC6183346.
# Protein sequences, listed by entry. Tags and fused reporters are not part of them.
# UniProt P06428: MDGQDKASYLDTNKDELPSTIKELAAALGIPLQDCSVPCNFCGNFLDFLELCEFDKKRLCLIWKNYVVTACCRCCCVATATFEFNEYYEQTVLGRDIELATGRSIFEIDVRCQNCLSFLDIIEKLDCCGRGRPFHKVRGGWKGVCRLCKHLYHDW
# UniProt Q01968: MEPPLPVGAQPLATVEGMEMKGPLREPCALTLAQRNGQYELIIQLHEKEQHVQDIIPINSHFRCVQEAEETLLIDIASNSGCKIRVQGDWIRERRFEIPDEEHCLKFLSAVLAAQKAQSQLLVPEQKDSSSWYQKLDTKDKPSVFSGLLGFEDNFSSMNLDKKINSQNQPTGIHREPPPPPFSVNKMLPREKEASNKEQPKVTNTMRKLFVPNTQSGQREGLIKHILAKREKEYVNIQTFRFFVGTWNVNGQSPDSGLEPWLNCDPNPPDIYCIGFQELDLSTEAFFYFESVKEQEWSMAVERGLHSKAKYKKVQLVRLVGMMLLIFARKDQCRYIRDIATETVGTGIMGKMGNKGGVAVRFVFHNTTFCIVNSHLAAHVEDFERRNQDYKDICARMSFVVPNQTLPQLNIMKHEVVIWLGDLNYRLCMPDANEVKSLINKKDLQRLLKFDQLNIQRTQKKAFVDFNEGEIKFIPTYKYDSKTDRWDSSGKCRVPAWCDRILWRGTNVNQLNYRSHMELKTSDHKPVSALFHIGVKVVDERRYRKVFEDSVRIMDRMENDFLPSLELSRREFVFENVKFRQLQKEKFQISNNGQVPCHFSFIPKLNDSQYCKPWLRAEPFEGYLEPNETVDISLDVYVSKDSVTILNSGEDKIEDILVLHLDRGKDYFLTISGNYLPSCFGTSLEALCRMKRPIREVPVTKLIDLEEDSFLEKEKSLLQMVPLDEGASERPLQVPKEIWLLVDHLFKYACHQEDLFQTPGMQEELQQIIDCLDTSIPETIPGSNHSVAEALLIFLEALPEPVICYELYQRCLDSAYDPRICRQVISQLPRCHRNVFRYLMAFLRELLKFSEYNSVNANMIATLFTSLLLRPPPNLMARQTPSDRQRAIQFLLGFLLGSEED
# Target: Flag-tagged HPV8-E6wt (human papillomavirus type 8) (UniProt P06428)
# Experiment: affinity purification with mass spectrometry; immunoprecipitation-coupled mass spectroscopy of HPV8-E6; construct, cells and conditions not told
substance,measurement,value
inositol-polyphosphate-5-phosphatase (OCRL1) (from UniProt Q01968 1-901) (enzyme),binding,binds

# No constants are given. Whether binding was seen depends on the method and setting. In cells and extracts the contact can be indirect. A yes stands for co-enrichment or nearness to the bait. Other partners may have been found.
